These are yes or no findings as the source states them, for the method shown. For some assays here: Binding seen in cells or lysates may run through a third protein. Some entries that bind do so weakly or less than the wild type. Where a sequence is shown, tags or fusion partners need not be part of it. One block for each binder: values may come before it.
What was measured:
[1] = biological target: T1, Lysosomal-associated membrane protein 1 (LAMP-1) (rat (endogenous in H4IIE)) (UniProt P14562); assay: flow cytometry on cells; H4IIE cells treated overnight ± CTRP3-FLAG (2.5 μg/well) ± polyclonal LAMP1 antibody (10 μg/well); fixed in 4% formaldehyde; rabbit anti-FLAG and fluorochrome-conjugated secondary antibody; MFI and percent positive cells; only the binder purified
T1 sequence: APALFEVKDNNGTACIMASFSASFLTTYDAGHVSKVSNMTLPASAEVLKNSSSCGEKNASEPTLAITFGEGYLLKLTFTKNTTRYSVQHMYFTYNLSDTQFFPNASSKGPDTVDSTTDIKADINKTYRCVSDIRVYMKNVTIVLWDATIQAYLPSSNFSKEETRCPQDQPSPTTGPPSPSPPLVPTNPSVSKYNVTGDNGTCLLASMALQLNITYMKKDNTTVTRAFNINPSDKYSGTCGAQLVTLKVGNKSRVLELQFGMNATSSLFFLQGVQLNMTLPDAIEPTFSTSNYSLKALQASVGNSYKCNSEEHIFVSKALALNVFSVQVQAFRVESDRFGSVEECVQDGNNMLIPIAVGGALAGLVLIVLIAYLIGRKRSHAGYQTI

[2] = biological target: T1, Lysosomal-associated membrane protein 1 (LAMP-1) (rat (endogenous in H4IIE)); assay: TriCEPS-based ligand-receptor capture (LRC-TriCEPS) with LC-MS/MS; TriCEPS-coupled CTRP3-FLAG or TriCEPS-coupled insulin (control ligand) added to mildly oxidised (1.5 mM NaIO4) H4IIE rat hepatoma cells, 90 min at 4°C, PBS pH 6.5; captured glycopeptides by LC-MS/MS; CTRP3 against insulin samples; only the binder purified
[3] = biological target: T2, Lysosome membrane protein 2 (LIMP II) (rat (endogenous in H4IIE)) (UniProt P27615); assay: as above
T2 sequence: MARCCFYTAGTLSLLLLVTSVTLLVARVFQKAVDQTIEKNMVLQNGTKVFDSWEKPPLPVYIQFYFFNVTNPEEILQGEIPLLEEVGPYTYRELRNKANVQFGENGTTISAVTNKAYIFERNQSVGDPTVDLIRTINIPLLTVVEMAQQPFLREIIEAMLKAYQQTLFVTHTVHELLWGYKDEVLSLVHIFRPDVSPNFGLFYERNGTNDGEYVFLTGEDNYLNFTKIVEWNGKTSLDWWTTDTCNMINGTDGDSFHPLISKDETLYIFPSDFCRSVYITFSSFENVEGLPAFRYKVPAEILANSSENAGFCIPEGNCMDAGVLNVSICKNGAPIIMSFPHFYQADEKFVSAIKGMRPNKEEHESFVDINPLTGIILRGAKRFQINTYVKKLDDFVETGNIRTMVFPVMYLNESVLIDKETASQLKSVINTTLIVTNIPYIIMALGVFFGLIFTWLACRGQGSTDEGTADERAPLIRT

[4] = biological target: T3, C-terminal FLAG-Tagged mouse CTRP3 (C1q TNF Related Protein 3) (mouse) (UniProt Q9ES30); assay: co-IP; H4IIE cells treated overnight with vehicle, FLAG peptide or recombinant CTRP3-FLAG; non-denaturing lysis buffer (20 mM Tris HCl pH 8, 137 mM NaCl, 10% glycerol, 1% Nonidet P-40, 2 mM EDTA); anti-FLAG affinity gel; immunoblot for LAMP1; only the target purified
T3 sequence: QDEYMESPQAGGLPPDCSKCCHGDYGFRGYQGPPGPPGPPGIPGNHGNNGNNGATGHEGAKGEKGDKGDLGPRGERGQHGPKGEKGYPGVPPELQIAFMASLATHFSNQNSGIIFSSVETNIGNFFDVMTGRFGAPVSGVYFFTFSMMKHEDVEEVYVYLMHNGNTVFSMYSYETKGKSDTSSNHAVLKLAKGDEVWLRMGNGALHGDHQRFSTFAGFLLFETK

FLAG peptide = biological target: T4, FLAG peptide; assay: as above
T4 sequence (peptide): DYKDDDDK

binding [1]: binds | binding [2]: binds | binding [3]: binds
B1: C-terminal FLAG-Tagged mouse CTRP3 (C1q TNF Related Protein 3) (ligand, UniProt Q9ES30 23-246)
chain: T3 sequence

binding [4]: binds | binding (FLAG peptide): no binding
B2: Lysosomal-associated membrane protein 1 (LAMP-1) (receptor, UniProt P14562 22-407)
chain: T1 sequence

From publication PMC5058508
